The star is where a group is joined. Cbz = O=C(OCc1ccccc1)*; OBn = c1ccc(CO*)cc1
Assay: general procedure: solution-phase peptide synthesis; N,N'-dicyclohexylcarbodiimide / N-oxybenzotriazol

Cbz-AE(OBn)D(OBn)R-OH showed a step yield (coupling step) of 45%.

With H-Ala-Glu-Asp-Arg (SEQ ID NO:1)-OH the step yield (late stage modification step) was 70% and the “final HPLC purity” value (purification step, 220 nm) was 98.01%.
